Where a sequence shows no end group, the ends are not given. One purity is given for all peptides; the source may state it once.
test: general procedure: Fmoc solid-phase peptide synthesis; Fmoc-Rink amid-MBHA Resin (degree of substitution=0.44 mmol/g; GL Biochem (Shanghai) Ltd.); HCTU/DIPEA; settings: whole synthesis, HPLC, dual wavelengths (214 nm and 254 nm), scale of the general procedure 1 g resin

Final purity (method not given), ≥97.2%:
NFNVAHGLAWSYYIGYLRLILPELQARIRTYN, IGYLRLILPELQARIRTYNQHYNNLLR, YLRLILPELQARIRTYNQHYNNLLR, NFNVAHGLAWSYYIGYLRLILPELQARIRTYNQHYNNLLR, NFNVAHGLAWSYYIGYLRLILPELQARIRTYNQHYNNL, LAWSYYIGYLRL, NFNVAHGLAWSYYIGYLRLILPELQARIRTYNQHYNNLL, NFNVAHGLAWSYYIGYLRLIL, NFNVAHGLAWSYYIGYLRLILPELQ, NFNVAHGLAWSYYIG

— US20250326796 (published 2025)
